PubChem BioAssay AID1259308 – NCATS | 2017
Assay: 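Candidate targets for better recombinant protein yield in mammalian cells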 (primary screen). Cell system: human HEK293 embryonic kidney cells stably expressing firefly luciferase (HEK-CMV-Luc2-Hygro). Knock-down reagent: single siRNA against human genes, 0.8 pmol siRNA per well. Timing: 72 h. Measurement: 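Luciferase light (ONE-Glo) measured on one replicate plate set and viability (CellTiter-Glo) on the other, scaled to a negative control siRNA, with robust z-scores and luciferase per cell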. Reading the numbers: total luciferase, z-score and total luciferase, % of control: higher = more reporter protein produced; luciferase per cell, z-score: higher = more reporter output per viable cell; viable cells, % of control: higher = more viable cells. Active means: 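An siRNA counts as active if its total luciferase robust z-score exceeds 3; genes with two or more such siRNAs out of three were retested with fresh siRNAs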. Calls: active = raised luciferase; inactive = no rise.
In all, the deposit lists about 59,000 reagents; this is a part drawn at random. About 1,510 of all reagents (2.6%) were called active. 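Calls use total luciferase alone and ignore viability, so some active siRNAs may act by altering cell number.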 Entries without a mark were called inactive. The numbers tell different reagents against one gene apart.

target	reagent	total luciferase, z-score	total luciferase, % of control	luciferase per cell, z-score	viable cells, % of control
LYRM1 (GeneID 57149)	1	0.418	90.2	0.76	82.5
LYRM1 (GeneID 57149)	2	0.659	95	0.0774	104
LYRM1 (GeneID 57149)	3	-2.47	32.8	-2.66	73.9
TEX12 (GeneID 56158)	1	0.392	89.7	-0.0178	101
TEX12 (GeneID 56158)	2	-0.302	75.9	0.526	73.8
TEX12 (GeneID 56158)	3	-1.03	61.4	-0.721	82.9
H3-4 (GeneID 8290)	1	-0.566	70.6	0.756	64.7
H3-4 (GeneID 8290)	2	-1.27	56.6	-1.01	82.6
H3-4 (GeneID 8290)	3	-0.676	68.4	-0.657	90.9
SRRM1 (GeneID 10250)	1	0.867	99.1	1.77	69.5
SRRM1 (GeneID 10250)	2	-0.0987	79.9	0.557	77.1
SRRM1 (GeneID 10250)	3	-2.12	39.8	-2.83	93.6
KLHL5 (GeneID 51088)	1	0.178	85.4	0.166	91.4
KLHL5 (GeneID 51088)	2	0.594	93.7	1.31	74.1
KLHL5 (GeneID 51088)	3	0.263	87.1	-0.733	118
COQ10A (GeneID 93058)	1	0.762	97	0.742	89.2
COQ10A (GeneID 93058)	2	0.374	89.3	0.517	87.1
COQ10A (GeneID 93058)	3	-0.367	74.6	-0.247	88.9
HGS (GeneID 9146)	1	-0.48	72.3	-0.179	84.8
HGS (GeneID 9146)	2	-0.206	77.8	-0.0628	88.4
HGS (GeneID 9146)	3	0.138	84.6	0.301	87.4
RNF151 (GeneID 146310)	1	1.17	105	0.618	99.8
RNF151 (GeneID 146310)	2	-0.366	74.6	-1.34	119
RNF151 (GeneID 146310)	3	2.44	130	1.6	95.5
KCTD8 (GeneID 386617)	1	1.89	119	1.33	93.9
KCTD8 (GeneID 386617)	2	-2.15	39	-2.19	77.7
KCTD8 (GeneID 386617)	3	-1.22	57.6	-1.1	85.9
ERAS (GeneID 3266)	1	-1	62	-1.62	106
ERAS (GeneID 3266)	2	-0.755	66.9	-1.11	100
ERAS (GeneID 3266)	3	2.16	125	1.43	95.7
SLC4A1AP (GeneID 22950)	1	1.54	113	0.725	104
SLC4A1AP (GeneID 22950)	2	-0.523	71.5	-0.432	89.5
SLC4A1AP (GeneID 22950)	3	0.364	89.1	0.514	87
ARMC9 (GeneID 80210)	1	2.64	134	1.89	91.3
ARMC9 (GeneID 80210)	2	-1.36	54.8	0.623	51.9
ARMC9 (GeneID 80210)	3	0.779	97.4	0.999	83.7
ZNF559 (GeneID 84527)	1	1.84	119	1.08	99.7
ZNF559 (GeneID 84527)	2	-0.851	65	-0.718	87.7
ZNF559 (GeneID 84527)	3	-0.675	68.5	-0.844	95.5

Records above whose target name begins with L or l:
target	reagent	total luciferase, z-score	total luciferase, % of control	luciferase per cell, z-score	viable cells, % of control
LYRM1 (GeneID 57149)	1	0.418	90.2	0.76	82.5
LYRM1 (GeneID 57149)	2	0.659	95	0.0774	104
LYRM1 (GeneID 57149)	3	-2.47	32.8	-2.66	73.9
